The results in this text go back to the supplement of paper PMC6411743.

Protein sequences, listed by entry. Tags and fused reporters are not part of them. Lines headed by an entry give the natural chain unless they say otherwise; changes in a name come on top.
UniProt Q9UIG0: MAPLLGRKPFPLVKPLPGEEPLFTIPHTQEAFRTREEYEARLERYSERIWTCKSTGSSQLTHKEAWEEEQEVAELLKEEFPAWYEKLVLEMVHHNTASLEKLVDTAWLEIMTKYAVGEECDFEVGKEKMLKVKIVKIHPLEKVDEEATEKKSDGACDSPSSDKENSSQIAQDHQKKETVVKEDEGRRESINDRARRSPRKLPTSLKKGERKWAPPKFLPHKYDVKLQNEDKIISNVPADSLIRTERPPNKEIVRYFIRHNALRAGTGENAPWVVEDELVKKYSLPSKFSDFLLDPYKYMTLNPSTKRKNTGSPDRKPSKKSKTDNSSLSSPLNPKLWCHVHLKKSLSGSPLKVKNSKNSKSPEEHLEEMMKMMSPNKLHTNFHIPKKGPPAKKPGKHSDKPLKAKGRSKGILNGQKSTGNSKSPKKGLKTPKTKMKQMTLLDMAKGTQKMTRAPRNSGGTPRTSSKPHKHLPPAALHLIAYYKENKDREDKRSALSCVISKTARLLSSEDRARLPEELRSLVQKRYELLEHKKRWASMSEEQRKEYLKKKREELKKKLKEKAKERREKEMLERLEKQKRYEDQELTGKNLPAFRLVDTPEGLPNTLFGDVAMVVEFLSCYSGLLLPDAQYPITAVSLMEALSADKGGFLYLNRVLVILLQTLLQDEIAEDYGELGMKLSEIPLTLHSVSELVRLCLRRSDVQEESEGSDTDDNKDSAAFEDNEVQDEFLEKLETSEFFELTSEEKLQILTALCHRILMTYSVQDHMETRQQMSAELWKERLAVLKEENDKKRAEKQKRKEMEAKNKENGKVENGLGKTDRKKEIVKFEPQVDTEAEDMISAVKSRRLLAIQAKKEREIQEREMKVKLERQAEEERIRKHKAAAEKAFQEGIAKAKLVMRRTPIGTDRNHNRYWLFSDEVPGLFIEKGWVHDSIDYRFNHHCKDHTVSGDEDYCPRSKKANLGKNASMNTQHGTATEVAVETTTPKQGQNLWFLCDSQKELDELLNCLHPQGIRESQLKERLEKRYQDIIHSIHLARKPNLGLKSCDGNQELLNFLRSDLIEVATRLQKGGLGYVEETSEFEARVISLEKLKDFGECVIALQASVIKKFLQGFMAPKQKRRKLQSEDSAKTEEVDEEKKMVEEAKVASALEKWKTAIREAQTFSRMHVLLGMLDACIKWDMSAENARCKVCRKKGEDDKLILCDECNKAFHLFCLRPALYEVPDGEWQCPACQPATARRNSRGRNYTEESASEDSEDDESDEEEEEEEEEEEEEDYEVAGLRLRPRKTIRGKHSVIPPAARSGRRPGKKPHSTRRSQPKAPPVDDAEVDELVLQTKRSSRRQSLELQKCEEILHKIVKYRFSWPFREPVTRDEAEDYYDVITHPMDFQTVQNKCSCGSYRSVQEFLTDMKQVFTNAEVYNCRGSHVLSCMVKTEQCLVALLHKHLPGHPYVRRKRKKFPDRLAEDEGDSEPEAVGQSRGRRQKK
UniProt Q9NZC9: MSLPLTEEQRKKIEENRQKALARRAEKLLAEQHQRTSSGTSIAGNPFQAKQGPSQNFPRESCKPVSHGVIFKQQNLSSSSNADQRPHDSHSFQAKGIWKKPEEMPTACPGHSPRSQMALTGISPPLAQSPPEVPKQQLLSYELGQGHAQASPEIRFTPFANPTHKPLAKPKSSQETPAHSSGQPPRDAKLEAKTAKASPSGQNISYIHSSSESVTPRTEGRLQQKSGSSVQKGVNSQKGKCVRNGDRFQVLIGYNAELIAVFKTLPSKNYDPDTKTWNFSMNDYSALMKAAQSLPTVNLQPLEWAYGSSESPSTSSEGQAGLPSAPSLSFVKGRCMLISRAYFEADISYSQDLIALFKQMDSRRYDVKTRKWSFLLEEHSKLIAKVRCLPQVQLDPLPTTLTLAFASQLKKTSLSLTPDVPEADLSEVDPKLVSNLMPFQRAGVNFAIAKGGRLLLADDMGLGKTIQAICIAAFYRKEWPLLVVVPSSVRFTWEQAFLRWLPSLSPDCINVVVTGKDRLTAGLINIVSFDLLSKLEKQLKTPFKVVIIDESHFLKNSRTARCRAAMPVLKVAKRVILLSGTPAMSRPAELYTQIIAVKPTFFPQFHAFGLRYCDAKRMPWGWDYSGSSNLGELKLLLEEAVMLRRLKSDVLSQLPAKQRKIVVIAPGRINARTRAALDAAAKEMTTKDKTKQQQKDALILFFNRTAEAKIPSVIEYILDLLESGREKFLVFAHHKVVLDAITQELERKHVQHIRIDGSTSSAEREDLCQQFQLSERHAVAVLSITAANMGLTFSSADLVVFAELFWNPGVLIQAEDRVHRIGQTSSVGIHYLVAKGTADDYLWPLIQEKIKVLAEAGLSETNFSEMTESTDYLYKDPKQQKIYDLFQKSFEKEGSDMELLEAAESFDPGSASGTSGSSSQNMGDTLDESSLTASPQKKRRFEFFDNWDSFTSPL
UniProt Q9NZ63: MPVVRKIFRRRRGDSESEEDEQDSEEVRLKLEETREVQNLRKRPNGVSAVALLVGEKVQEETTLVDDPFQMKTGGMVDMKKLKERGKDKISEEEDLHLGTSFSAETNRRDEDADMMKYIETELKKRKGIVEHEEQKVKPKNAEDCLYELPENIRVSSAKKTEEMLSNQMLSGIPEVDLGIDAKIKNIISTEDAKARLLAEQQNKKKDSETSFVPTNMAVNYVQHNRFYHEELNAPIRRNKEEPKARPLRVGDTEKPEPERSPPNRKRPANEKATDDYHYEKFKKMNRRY
UniProt Q9NVG8: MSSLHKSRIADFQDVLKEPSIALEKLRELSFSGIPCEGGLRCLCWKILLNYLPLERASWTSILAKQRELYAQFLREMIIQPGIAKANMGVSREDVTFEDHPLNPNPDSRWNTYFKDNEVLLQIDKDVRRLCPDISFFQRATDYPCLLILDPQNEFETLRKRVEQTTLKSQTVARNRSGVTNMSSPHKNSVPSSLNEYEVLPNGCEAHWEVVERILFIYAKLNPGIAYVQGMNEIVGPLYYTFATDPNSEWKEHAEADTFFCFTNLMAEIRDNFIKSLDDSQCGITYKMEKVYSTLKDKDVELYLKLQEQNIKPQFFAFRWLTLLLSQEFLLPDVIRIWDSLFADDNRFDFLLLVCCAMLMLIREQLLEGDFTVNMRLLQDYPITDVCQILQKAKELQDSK
UniProt Q9UIA9: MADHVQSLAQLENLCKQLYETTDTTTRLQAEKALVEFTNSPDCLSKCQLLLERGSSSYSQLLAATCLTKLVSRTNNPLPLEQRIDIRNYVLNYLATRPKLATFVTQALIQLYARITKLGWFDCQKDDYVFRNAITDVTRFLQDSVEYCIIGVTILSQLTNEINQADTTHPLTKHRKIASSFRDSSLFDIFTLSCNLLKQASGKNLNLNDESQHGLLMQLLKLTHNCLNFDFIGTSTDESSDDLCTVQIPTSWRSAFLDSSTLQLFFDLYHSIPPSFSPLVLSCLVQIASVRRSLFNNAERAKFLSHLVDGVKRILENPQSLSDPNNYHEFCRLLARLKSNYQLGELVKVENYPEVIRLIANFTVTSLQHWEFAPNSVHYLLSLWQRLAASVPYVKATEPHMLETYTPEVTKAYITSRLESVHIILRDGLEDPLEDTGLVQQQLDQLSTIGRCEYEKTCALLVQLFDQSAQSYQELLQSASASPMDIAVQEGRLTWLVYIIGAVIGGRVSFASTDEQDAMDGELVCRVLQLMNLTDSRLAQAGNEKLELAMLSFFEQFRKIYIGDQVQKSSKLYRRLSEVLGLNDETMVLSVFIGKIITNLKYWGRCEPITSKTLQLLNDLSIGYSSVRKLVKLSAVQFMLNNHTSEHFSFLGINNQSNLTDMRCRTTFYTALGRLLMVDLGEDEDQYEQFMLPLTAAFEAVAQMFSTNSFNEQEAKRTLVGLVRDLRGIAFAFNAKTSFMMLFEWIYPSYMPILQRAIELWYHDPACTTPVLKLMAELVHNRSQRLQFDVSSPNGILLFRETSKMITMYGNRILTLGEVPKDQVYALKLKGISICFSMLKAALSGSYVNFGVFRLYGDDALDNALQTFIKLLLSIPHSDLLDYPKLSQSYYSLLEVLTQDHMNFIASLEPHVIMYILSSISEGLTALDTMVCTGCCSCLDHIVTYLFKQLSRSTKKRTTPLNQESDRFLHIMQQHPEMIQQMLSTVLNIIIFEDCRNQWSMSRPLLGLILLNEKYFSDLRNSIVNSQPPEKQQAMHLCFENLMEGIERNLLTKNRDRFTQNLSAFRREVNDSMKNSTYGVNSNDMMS
UniProt Q9UFN0: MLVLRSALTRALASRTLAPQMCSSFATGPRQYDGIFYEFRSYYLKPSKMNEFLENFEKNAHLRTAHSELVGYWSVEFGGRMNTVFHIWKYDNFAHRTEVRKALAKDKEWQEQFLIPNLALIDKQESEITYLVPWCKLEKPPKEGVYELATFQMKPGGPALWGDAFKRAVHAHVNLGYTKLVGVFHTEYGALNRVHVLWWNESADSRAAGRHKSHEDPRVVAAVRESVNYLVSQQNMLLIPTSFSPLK
UniProt Q9UKY7: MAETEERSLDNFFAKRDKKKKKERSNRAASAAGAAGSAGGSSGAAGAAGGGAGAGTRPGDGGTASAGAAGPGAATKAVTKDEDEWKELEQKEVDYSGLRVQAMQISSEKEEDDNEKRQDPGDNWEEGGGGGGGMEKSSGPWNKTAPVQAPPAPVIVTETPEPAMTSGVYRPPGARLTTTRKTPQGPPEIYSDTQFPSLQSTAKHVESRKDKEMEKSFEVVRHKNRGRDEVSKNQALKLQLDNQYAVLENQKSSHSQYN
UniProt Q9NUJ1: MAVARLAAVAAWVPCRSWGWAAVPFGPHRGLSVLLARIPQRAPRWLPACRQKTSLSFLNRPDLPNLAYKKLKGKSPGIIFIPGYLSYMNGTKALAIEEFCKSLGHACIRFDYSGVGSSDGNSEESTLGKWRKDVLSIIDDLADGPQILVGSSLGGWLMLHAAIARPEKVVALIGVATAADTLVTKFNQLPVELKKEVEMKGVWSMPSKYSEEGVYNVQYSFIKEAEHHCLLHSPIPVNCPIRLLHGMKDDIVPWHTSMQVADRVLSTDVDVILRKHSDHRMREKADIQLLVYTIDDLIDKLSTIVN
UniProt Q9NX01: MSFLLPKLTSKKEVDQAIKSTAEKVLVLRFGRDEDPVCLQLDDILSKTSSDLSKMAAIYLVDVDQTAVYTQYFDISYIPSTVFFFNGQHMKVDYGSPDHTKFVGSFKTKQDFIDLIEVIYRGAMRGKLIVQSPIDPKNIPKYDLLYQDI
UniProt Q9NXF7, whole entry: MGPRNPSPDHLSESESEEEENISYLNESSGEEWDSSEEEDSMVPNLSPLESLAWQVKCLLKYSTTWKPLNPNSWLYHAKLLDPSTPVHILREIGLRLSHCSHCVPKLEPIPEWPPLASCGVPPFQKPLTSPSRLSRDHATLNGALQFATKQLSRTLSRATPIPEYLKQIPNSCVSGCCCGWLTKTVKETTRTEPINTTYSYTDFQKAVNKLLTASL
UniProt Q9NY12: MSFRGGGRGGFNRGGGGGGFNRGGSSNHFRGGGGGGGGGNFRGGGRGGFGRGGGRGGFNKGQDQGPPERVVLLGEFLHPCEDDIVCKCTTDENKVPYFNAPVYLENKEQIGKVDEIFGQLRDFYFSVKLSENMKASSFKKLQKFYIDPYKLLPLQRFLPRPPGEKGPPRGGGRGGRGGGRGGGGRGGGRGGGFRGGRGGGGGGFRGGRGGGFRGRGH
UniProt Q9UKI8: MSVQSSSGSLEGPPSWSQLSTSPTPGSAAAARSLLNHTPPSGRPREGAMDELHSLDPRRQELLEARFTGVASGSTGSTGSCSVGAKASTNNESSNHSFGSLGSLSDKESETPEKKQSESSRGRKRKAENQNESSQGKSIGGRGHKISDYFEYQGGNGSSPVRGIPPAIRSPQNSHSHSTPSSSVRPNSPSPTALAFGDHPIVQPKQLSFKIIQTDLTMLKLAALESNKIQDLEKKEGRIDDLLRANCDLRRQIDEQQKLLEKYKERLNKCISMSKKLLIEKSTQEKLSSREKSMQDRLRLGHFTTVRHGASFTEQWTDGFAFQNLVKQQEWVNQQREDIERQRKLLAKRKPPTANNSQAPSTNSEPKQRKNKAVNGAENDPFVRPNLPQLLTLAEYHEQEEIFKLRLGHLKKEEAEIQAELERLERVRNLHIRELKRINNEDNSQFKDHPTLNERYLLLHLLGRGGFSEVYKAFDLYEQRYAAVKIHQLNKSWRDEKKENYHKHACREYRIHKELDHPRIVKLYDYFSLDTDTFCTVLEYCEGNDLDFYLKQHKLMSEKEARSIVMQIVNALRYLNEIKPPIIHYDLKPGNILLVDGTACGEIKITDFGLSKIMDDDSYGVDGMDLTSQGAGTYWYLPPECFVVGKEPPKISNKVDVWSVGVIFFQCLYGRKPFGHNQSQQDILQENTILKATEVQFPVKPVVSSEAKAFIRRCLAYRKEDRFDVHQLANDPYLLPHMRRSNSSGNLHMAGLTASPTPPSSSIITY

Compound in the assay: Nc1nc2c(ncn2[C@@H]2O[C@H](COP(=O)(O)OP(=O)(O)OP(=O)(O)O)[C@@H](O)[C@H]2O)c(=O)[nH]1 [guanosine triphosphate]
As to the kind of experiment: NP40-soluble protein abundance relative to vehicle (solubility fold change) (ratio); higher = more soluble protein in presence of GTP. In a few lines: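 Jurkat crude lysate prepared with a Dounce homogeniser was treated at eight concentrations spanning 0.1 to 10 mM, 10 min at room temperature then 3 min at 37 °C. Solubilisation with 0.8% NP40 and benzonase and ultracentrifugation preceded TMT labelling of the supernatant for LC-MS/MS. Fold change against the detergent-processed vehicle was determined per replicate from vsn-normalised intensities, across three independent experiments.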

± gives the standard deviation of the averaged measurements. This is one part of the list.

Regarding UniProt Q9UIG0 and related entries, the NP40-soluble protein abundance stood at 0.907 ± 0.029 (concentration: 0.1mM); 0.912 ± 0.061 (concentration: 0.5mM); 1 ± 0.053 (concentration: 1mM); 1.01 ± 0.077 (concentration: 2mM); 1.11 ± 0.076 (concentration: 4mM); 1.27 ± 0.13 (concentration: 6mM). Besides, the NP40-soluble protein abundance runs as follows: (concentration: 8mM) 1.32 ± 0.12; (concentration: 10mM) 1.62 ± 0.089.
Consider SMARCAL1 (UniProt Q9NZC9), for which the NP40-soluble protein abundance is, setting by setting: (concentration: 0.1mM) 1.03 ± 0.049; (concentration: 0.5mM) 1.06 ± 0.042; (concentration: 1mM) 1.03 ± 0.029; (concentration: 2mM) 1.04 ± 0.023; (concentration: 4mM) 1.1 ± 0.026; (concentration: 6mM) 1.06 ± 0.04. The NP40-soluble protein abundance (concentration: 8mM) amounted to 1.06 ± 0.079 and the NP40-soluble protein abundance (concentration: 10mM) came to 1.06 ± 0.038.
Turning to C9orf78 (UniProt Q9NZ63), the NP40-soluble protein abundance is, setting by setting: (concentration: 0.1mM) 0.863 ± 0.051; (concentration: 0.5mM) 0.823 ± 0.039; (concentration: 1mM) 0.961 ± 0.077; (concentration: 2mM) 0.924 ± 0.083; (concentration: 4mM) 0.905 ± 0.083; (concentration: 6mM) 0.937 ± 0.11. Further, the NP40-soluble protein abundance is 0.932 ± 0.097 (concentration: 8mM) and 0.975 ± 0.075 (concentration: 10mM).
Regarding TBC1D13 (UniProt Q9NVG8), the NP40-soluble protein abundance by setting is: (concentration: 0.1mM) 0.962 ± 0.036; (concentration: 0.5mM) 0.985 ± 0.048; (concentration: 1mM) 0.927 ± 0.046; (concentration: 2mM) 0.896 ± 0.047; (concentration: 4mM) 0.857 ± 0.071; (concentration: 6mM) 0.866 ± 0.066. In addition, the NP40-soluble protein abundance (concentration: 8mM) stood at 0.847 ± 0.1 and the NP40-soluble protein abundance (concentration: 10mM) worked out at 0.822 ± 0.089.
Consider MRPL16 (UniProt Q9NX20), for which the NP40-soluble protein abundance reads like this: (concentration: 0.1mM) 1.13 ± 0.039; (concentration: 0.5mM) 1.15 ± 0.091; (concentration: 1mM) 1.18 ± 0.2; (concentration: 2mM) 1.25 ± 0.24; (concentration: 4mM) 1.26 ± 0.19; (concentration: 6mM) 1.23 ± 0.28. Also, the NP40-soluble protein abundance turned out to be 1.18 ± 0.27 (concentration: 8mM) and 1.14 ± 0.34 (concentration: 10mM).
Consider UniProt Q9UIA9 and related entries, for which the NP40-soluble protein abundance by setting is: (concentration: 0.1mM) 0.979 ± 0.035; (concentration: 0.5mM) 0.971 ± 0.038; (concentration: 1mM) 0.908 ± 0.034; (concentration: 2mM) 0.93 ± 0.031; (concentration: 4mM) 0.951 ± 0.032; (concentration: 6mM) 0.898 ± 0.016. The NP40-soluble protein abundance was 0.88 ± 0.036 (concentration: 8mM) and 0.881 ± 0.033 (concentration: 10mM).
For the target NIPSNAP3A (UniProt Q9UFN0), the NP40-soluble protein abundance runs as follows: (concentration: 0.1mM) 1.06 ± 0.017; (concentration: 0.5mM) 1 ± 0.041; (concentration: 1mM) 0.896 ± 0.031; (concentration: 2mM) 0.901 ± 0.062; (concentration: 4mM) 0.9361 ± 0.0045; (concentration: 6mM) 0.86 ± 0.034. In addition, the NP40-soluble protein abundance reads like this: (concentration: 8mM) 0.857 ± 0.057; (concentration: 10mM) 0.816 ± 0.078.
Consider CDV3 (UniProt Q9UKY7), for which the NP40-soluble protein abundance runs as follows: (concentration: 0.1mM) 0.957 ± 0.072; (concentration: 0.5mM) 1.05 ± 0.071; (concentration: 1mM) 0.915 ± 0.072; (concentration: 2mM) 0.955 ± 0.11; (concentration: 4mM) 0.889 ± 0.093; (concentration: 6mM) 1 ± 0.092. Moreover, the NP40-soluble protein abundance (concentration: 8mM) stood at 1.09 ± 0.083 and the NP40-soluble protein abundance (concentration: 10mM) stood at 1.11 ± 0.068.
With UniProt Q9NUJ1 and related entries, the NP40-soluble protein abundance by setting is: (concentration: 0.1mM) 1 ± 0.11; (concentration: 0.5mM) 1.05 ± 0.11; (concentration: 1mM) 0.98 ± 0.096; (concentration: 2mM) 0.983 ± 0.17; (concentration: 4mM) 0.955 ± 0.12; (concentration: 6mM) 0.983 ± 0.13. Besides, the NP40-soluble protein abundance was found to be 0.928 ± 0.13 (concentration: 8mM) and 0.883 ± 0.11 (concentration: 10mM).
Regarding VTI1B (UniProt Q9UEU0), the NP40-soluble protein abundance by setting is: (concentration: 0.1mM) 0.993 ± 0.037; (concentration: 0.5mM) 0.969 ± 0.064; (concentration: 1mM) 1.02 ± 0.014; (concentration: 2mM) 1.1 ± 0.067; (concentration: 4mM) 1.14 ± 0.027; (concentration: 6mM) 1.1 ± 0.08. Further, the NP40-soluble protein abundance is 1.07 ± 0.1 (concentration: 8mM) and 1.121 ± 0.01 (concentration: 10mM).
With TXNL4B (UniProt Q9NX01), the NP40-soluble protein abundance by setting is: (concentration: 0.1mM) 0.968 ± 0.014; (concentration: 0.5mM) 1.06 ± 0.097; (concentration: 1mM) 1.06 ± 0.11; (concentration: 2mM) 0.985 ± 0.03; (concentration: 4mM) 1.01 ± 0.03; (concentration: 6mM) 1.02 ± 0.088. For the same target, the NP40-soluble protein abundance is, setting by setting: (concentration: 8mM) 0.99 ± 0.059; (concentration: 10mM) 1 ± 0.067.
UniProt Q9NXF7: the NP40-soluble protein abundance reads like this: (concentration: 0.1mM) 1 ± 0.18; (concentration: 0.5mM) 0.98 ± 0.17; (concentration: 1mM) 1.04 ± 0.13; (concentration: 2mM) 1.01 ± 0.12; (concentration: 4mM) 0.968 ± 0.12; (concentration: 6mM) 0.968 ± 0.12. Besides, the NP40-soluble protein abundance reads like this: (concentration: 8mM) 0.977 ± 0.14; (concentration: 10mM) 1.04 ± 0.14.
Consider UniProt Q9NY12 and related entries, for which the NP40-soluble protein abundance reads like this: (concentration: 0.1mM) 1.04 ± 0.097; (concentration: 0.5mM) 1.06 ± 0.12; (concentration: 1mM) 1.17 ± 0.2; (concentration: 2mM) 1.34 ± 0.15; (concentration: 4mM) 1.51 ± 0.24; (concentration: 6mM) 1.72 ± 0.19. Besides, the NP40-soluble protein abundance is, setting by setting: (concentration: 8mM) 1.9 ± 0.27; (concentration: 10mM) 2.35 ± 0.49.
VPS18 (UniProt Q9P253): the NP40-soluble protein abundance was determined as 1.09 ± 0.028 (concentration: 0.1mM); 1.13 ± 0.055 (concentration: 0.5mM); 1.05 ± 0.039 (concentration: 1mM); 1.06 ± 0.08 (concentration: 2mM); 1.1 ± 0.059 (concentration: 4mM); 1.05 ± 0.05 (concentration: 6mM). Besides, the NP40-soluble protein abundance by setting is: (concentration: 8mM) 1.0269 ± 0.00089; (concentration: 10mM) 1.03 ± 0.065.
Consider UniProt Q9UKI8 and related entries, for which the NP40-soluble protein abundance is, setting by setting: (concentration: 0.1mM) 0.999 ± 0.035; (concentration: 0.5mM) 0.983 ± 0.044; (concentration: 1mM) 0.912 ± 0.048; (concentration: 2mM) 0.906 ± 0.053; (concentration: 4mM) 0.886 ± 0.063; (concentration: 6mM) 0.913 ± 0.048. Further, the NP40-soluble protein abundance runs as follows: (concentration: 8mM) 0.892 ± 0.096; (concentration: 10mM) 0.887 ± 0.068.
